This passage reports binding results from doi:10.1101/707661.

Protein sequences, listed by entry. Tags and fused reporters are not part of them.
UniProt P11387: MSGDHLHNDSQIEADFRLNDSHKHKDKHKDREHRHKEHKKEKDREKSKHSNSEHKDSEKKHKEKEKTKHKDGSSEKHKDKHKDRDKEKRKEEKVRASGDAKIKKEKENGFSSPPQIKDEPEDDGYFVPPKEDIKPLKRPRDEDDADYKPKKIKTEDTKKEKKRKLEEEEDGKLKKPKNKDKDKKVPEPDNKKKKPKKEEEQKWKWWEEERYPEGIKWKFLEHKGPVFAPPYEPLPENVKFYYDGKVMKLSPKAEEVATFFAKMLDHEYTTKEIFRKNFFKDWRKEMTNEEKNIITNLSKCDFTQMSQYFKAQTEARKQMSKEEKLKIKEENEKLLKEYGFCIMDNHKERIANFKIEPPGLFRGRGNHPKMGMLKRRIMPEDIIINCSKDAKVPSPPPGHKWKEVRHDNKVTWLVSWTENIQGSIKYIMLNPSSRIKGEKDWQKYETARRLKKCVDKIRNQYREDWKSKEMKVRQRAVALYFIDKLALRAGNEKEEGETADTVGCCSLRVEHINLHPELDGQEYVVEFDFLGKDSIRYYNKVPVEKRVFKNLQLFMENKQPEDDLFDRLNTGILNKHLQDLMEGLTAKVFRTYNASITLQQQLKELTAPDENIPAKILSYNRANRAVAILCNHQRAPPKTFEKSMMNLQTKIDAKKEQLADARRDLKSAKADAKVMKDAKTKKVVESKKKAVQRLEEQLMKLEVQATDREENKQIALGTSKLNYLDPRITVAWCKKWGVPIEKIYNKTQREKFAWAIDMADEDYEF
UniProt Q02880: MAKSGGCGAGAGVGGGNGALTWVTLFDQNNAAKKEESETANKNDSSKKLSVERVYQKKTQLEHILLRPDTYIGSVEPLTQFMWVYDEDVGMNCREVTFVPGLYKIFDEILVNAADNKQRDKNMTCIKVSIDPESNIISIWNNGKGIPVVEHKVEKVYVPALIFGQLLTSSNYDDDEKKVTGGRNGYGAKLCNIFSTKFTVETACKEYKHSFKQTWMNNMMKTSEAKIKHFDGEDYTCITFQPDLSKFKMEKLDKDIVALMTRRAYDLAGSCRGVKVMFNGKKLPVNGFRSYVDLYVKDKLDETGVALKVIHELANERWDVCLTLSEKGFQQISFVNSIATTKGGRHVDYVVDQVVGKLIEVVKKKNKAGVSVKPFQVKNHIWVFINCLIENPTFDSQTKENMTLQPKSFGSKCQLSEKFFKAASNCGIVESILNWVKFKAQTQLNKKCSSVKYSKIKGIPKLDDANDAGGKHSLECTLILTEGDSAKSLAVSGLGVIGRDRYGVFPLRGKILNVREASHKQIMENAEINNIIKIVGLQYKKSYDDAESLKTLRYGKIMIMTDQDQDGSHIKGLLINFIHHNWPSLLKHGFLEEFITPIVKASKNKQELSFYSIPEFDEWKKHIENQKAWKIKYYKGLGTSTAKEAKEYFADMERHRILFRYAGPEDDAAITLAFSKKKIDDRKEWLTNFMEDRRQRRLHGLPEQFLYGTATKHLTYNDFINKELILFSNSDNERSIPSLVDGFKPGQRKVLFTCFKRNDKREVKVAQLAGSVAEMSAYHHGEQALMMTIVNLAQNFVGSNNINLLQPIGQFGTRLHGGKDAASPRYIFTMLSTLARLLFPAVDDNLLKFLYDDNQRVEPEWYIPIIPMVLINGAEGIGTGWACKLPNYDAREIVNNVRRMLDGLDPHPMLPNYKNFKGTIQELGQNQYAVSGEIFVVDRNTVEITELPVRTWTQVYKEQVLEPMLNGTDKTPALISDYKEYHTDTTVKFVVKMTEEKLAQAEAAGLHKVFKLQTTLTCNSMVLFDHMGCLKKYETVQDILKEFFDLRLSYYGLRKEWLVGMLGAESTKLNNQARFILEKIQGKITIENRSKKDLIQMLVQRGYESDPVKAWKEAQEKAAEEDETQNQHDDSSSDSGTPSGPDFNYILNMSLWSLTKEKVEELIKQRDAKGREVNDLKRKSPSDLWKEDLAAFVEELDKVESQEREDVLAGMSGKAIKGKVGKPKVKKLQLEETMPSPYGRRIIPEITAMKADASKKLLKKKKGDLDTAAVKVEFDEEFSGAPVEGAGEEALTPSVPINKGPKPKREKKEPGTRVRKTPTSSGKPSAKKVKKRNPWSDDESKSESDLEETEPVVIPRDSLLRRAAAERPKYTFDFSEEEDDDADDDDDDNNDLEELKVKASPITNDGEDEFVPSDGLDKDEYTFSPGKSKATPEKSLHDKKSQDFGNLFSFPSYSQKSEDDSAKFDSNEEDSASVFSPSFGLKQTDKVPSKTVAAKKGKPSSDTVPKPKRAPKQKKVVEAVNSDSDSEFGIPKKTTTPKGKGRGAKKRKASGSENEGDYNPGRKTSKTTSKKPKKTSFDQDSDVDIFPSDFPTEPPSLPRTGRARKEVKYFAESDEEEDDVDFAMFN
UniProt P11388: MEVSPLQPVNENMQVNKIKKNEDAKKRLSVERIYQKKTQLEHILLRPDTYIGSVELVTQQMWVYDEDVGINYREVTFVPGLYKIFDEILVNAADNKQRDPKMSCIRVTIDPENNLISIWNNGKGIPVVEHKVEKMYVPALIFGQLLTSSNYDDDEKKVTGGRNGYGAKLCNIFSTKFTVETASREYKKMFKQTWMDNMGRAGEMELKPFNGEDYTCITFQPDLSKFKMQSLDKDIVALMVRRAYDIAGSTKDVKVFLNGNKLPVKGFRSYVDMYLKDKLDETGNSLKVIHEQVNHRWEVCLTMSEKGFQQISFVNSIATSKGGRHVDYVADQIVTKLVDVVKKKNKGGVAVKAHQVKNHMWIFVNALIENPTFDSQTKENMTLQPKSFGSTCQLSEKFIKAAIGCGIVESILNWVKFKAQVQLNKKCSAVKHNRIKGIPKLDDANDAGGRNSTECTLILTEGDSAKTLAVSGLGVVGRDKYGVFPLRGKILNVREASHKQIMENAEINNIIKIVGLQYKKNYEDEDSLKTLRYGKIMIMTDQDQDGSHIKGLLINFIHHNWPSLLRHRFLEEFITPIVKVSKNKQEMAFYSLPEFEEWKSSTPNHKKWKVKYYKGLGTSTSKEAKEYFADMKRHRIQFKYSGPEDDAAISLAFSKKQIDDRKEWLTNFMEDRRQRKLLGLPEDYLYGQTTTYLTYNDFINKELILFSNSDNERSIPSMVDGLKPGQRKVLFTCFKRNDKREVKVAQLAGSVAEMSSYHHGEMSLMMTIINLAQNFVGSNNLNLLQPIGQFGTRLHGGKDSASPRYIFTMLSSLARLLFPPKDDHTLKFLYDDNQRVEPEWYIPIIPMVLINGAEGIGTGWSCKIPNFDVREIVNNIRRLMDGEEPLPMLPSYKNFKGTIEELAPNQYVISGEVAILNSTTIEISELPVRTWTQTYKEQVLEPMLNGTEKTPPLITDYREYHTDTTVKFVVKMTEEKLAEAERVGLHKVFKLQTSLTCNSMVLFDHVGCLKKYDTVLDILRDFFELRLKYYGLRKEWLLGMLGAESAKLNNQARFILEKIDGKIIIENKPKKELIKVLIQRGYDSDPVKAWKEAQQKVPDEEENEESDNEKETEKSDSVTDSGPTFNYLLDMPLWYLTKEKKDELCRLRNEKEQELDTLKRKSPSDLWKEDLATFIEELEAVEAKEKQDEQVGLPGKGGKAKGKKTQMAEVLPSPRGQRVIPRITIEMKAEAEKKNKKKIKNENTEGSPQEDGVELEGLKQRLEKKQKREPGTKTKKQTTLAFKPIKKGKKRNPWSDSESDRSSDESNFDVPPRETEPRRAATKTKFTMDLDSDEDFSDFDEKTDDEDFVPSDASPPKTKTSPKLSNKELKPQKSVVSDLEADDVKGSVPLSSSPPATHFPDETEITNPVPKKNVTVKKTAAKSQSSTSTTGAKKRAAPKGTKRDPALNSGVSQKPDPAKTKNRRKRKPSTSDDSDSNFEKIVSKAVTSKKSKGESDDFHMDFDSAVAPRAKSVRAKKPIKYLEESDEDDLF

Holding throughout (assay): affinity purification with mass spectrometry
One assay concerns the target T1, FLAG-PIAS4 (human) (UniProt Q8N2W9).
T1 sequence: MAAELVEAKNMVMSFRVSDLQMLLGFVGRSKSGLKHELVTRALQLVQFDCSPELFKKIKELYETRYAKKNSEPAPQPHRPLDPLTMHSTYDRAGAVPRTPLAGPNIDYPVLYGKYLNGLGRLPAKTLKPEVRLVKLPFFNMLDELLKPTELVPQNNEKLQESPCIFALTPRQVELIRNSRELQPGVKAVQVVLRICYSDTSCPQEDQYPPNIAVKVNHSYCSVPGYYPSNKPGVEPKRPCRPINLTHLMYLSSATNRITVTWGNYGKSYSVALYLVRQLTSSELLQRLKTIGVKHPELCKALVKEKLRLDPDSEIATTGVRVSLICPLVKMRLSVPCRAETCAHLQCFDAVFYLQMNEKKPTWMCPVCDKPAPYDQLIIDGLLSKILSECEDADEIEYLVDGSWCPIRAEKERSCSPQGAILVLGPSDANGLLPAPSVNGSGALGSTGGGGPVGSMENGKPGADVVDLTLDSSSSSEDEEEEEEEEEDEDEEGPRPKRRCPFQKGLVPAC

Assay [1] deals with 6×His tagged TOP1 (human) (UniProt P11387).
Assay [2] concerns the target FLAG tagged TOP2β (human) (UniProt Q02880).
Assay [3] addresses FLAG tagged TOP2α (human) (UniProt P11388).

These are yes or no findings as the source states them, for the method shown. Binding seen in cells or lysates may run through a third protein. Here binding means that the protein was enriched with, or labelled near, the bait; the list need not be complete. For some assays here: Tags and fused reporters may be left off the sequences shown.

For the molecule TOP1 (from UniProt P11387 1-765), the binding entry with FLAG-PIAS4 (human) was “binds”.

For TOP2β (from UniProt Q02880 1-1626), the binding entry with FLAG-PIAS4 (human) is “binds”.

B1: PIAS4 (protein, UniProt Q8N2W9 1-510)
chain: T1 sequence
As for B1, the binding result in assay [1], in assay [2] and in assay [3] was “binds” each time.
